{"source": "PubChem BioAssay AID1224830 (NIAID, 2016)", "test": "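Genes whose knock-down alters the TNF-alpha reporter response to LPS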 (primary screen)", "system": "human THP-1 monocytic leukaemia cells, TNF dual-luciferase reporter clone, PMA-differentiated to macrophage-like cells", "reagent": "siRNA pool against human genes, 50 nM", "duration": "LPS for 4 h, given about 3 days after siRNA transfection", "challenge": "bacterial LPS (TLR4 ligand), 10 ng/ml", "detection": "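Ratio of firefly to renilla light, scaled to the plate median and expressed as a robust z-score per replicate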", "scale": "TNF reporter robust z-score: higher = stronger TNF reporter response to LPS", "hit rule": "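a well is active when its z-score exceeds 2.8 or falls below -1.5; control wells carry no call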", "note": "This is one part, drawn at random, of about 18,000 deposited reagents. About 2,900 of them (16%) count as active. 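Calls are made per well; low scores hint the gene aids the LPS response, high scores that it dampens it.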 Entries without a mark were called inactive. Repeated entries: four replicate wells of each siRNA pool."}
{"gene symbol": "GPR6 (GeneID 2830)", "TNF reporter robust z-score": 0.05}
{"gene symbol": "GPR6 (GeneID 2830)", "TNF reporter robust z-score": 1.23}
{"gene symbol": "GPR6 (GeneID 2830)", "TNF reporter robust z-score": 1.17}
{"gene symbol": "GPR6 (GeneID 2830)", "TNF reporter robust z-score": 0.76}
{"gene symbol": "FGF10 (GeneID 2255)", "TNF reporter robust z-score": "-1.71 (active)"}
{"gene symbol": "FGF10 (GeneID 2255)", "TNF reporter robust z-score": -0.68}
{"gene symbol": "FGF10 (GeneID 2255)", "TNF reporter robust z-score": -1.44}
{"gene symbol": "NCOR1 (GeneID 9611)", "TNF reporter robust z-score": 0.88}
{"gene symbol": "NCOR1 (GeneID 9611)", "TNF reporter robust z-score": 0.62}
{"gene symbol": "NCOR1 (GeneID 9611)", "TNF reporter robust z-score": -0.07}
{"gene symbol": "NCOR1 (GeneID 9611)", "TNF reporter robust z-score": 1.33}
{"gene symbol": "PCDHB16 (GeneID 57717)", "TNF reporter robust z-score": -0.41}
{"gene symbol": "PCDHB16 (GeneID 57717)", "TNF reporter robust z-score": 2.15}
{"gene symbol": "PCDHB16 (GeneID 57717)", "TNF reporter robust z-score": 0.47}
{"gene symbol": "PCDHB16 (GeneID 57717)", "TNF reporter robust z-score": 2.22}
{"gene symbol": "SORT1 (GeneID 6272)", "TNF reporter robust z-score": 0.08}
{"gene symbol": "SORT1 (GeneID 6272)", "TNF reporter robust z-score": -0.97}
{"gene symbol": "SORT1 (GeneID 6272)", "TNF reporter robust z-score": -1.16}
{"gene symbol": "SORT1 (GeneID 6272)", "TNF reporter robust z-score": -0.29}
{"gene symbol": "USP22 (GeneID 23326)", "TNF reporter robust z-score": -0.41}
{"gene symbol": "USP22 (GeneID 23326)", "TNF reporter robust z-score": 0.04}
{"gene symbol": "USP22 (GeneID 23326)", "TNF reporter robust z-score": 0.39}
{"gene symbol": "USP22 (GeneID 23326)", "TNF reporter robust z-score": 1.61}

Entries listed so far whose target name begins with F or f:
{"gene symbol": "FGF10 (GeneID 2255)", "TNF reporter robust z-score": "-1.71 (active)"}
{"gene symbol": "FGF10 (GeneID 2255)", "TNF reporter robust z-score": -0.68}
{"gene symbol": "FGF10 (GeneID 2255)", "TNF reporter robust z-score": -1.44}

The listing continues:
{"gene symbol": "STK32B (GeneID 55351)", "TNF reporter robust z-score": -0.05}
{"gene symbol": "STK32B (GeneID 55351)", "TNF reporter robust z-score": 0.85}
{"gene symbol": "STK32B (GeneID 55351)", "TNF reporter robust z-score": 0.96}
{"gene symbol": "STK32B (GeneID 55351)", "TNF reporter robust z-score": 1.15}
{"gene symbol": "DUSP16 (GeneID 80824)", "TNF reporter robust z-score": -0.27}
{"gene symbol": "DUSP16 (GeneID 80824)", "TNF reporter robust z-score": 0.75}
{"gene symbol": "DUSP16 (GeneID 80824)", "TNF reporter robust z-score": 1.31}
{"gene symbol": "DUSP16 (GeneID 80824)", "TNF reporter robust z-score": 1.46}
{"gene symbol": "SEPTIN9 (GeneID 10801)", "TNF reporter robust z-score": -1.02}
{"gene symbol": "SEPTIN9 (GeneID 10801)", "TNF reporter robust z-score": 0.75}
{"gene symbol": "SEPTIN9 (GeneID 10801)", "TNF reporter robust z-score": 0.5}
{"gene symbol": "SEPTIN9 (GeneID 10801)", "TNF reporter robust z-score": 0.31}
{"gene symbol": "RBL2 (GeneID 5934)", "TNF reporter robust z-score": 0.55}
{"gene symbol": "RBL2 (GeneID 5934)", "TNF reporter robust z-score": 1.35}
{"gene symbol": "RBL2 (GeneID 5934)", "TNF reporter robust z-score": 0.68}
{"gene symbol": "RBL2 (GeneID 5934)", "TNF reporter robust z-score": 1}
{"gene symbol": "CBX7 (GeneID 23492)", "TNF reporter robust z-score": 0.5}
{"gene symbol": "CBX7 (GeneID 23492)", "TNF reporter robust z-score": 0.76}
{"gene symbol": "CBX7 (GeneID 23492)", "TNF reporter robust z-score": 0.11}
{"gene symbol": "CBX7 (GeneID 23492)", "TNF reporter robust z-score": 1.53}
{"gene symbol": "NME2 (GeneID 4831)", "TNF reporter robust z-score": -0.94}
{"gene symbol": "NME2 (GeneID 4831)", "TNF reporter robust z-score": -0.52}
{"gene symbol": "NME2 (GeneID 4831)", "TNF reporter robust z-score": -0.81}
{"gene symbol": "NME2 (GeneID 4831)", "TNF reporter robust z-score": 0.46}
